Experimental data taken from publication PMC10630320.
Read-outs that look alike come from different tables or passages of the source. No constants are given. Whether binding was seen depends on the method and setting. In cells and extracts the contact can be indirect. These calls come from enrichment with a bait or labelling near it, and not all partners need be listed. For part of these data: No binding means not detected with the bait.

The chains behind the UniProt entries cited, without tags or fusion partners. Where a name states a change or a piece, a line headed by the entry shows the natural chain unless it says otherwise.
UniProt Q96ES7: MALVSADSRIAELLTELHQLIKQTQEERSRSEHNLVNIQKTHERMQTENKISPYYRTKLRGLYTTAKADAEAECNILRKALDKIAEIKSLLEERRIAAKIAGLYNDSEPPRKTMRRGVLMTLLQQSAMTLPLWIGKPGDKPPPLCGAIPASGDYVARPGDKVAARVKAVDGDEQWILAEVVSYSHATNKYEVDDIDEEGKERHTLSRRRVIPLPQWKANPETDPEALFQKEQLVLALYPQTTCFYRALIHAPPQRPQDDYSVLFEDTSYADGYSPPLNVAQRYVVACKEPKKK
UniProt O75528: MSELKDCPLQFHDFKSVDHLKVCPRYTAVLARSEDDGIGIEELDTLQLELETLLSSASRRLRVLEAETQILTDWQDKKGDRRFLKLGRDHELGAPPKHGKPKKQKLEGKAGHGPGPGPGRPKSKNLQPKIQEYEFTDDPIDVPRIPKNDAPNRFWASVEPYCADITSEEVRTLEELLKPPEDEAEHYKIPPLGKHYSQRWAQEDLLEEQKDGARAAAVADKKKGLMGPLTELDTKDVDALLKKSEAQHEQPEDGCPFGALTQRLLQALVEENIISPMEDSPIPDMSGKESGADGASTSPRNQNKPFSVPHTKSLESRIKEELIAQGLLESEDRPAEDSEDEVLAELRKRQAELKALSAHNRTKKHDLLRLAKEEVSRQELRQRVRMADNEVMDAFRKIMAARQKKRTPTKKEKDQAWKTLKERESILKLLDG
UniProt Q92831: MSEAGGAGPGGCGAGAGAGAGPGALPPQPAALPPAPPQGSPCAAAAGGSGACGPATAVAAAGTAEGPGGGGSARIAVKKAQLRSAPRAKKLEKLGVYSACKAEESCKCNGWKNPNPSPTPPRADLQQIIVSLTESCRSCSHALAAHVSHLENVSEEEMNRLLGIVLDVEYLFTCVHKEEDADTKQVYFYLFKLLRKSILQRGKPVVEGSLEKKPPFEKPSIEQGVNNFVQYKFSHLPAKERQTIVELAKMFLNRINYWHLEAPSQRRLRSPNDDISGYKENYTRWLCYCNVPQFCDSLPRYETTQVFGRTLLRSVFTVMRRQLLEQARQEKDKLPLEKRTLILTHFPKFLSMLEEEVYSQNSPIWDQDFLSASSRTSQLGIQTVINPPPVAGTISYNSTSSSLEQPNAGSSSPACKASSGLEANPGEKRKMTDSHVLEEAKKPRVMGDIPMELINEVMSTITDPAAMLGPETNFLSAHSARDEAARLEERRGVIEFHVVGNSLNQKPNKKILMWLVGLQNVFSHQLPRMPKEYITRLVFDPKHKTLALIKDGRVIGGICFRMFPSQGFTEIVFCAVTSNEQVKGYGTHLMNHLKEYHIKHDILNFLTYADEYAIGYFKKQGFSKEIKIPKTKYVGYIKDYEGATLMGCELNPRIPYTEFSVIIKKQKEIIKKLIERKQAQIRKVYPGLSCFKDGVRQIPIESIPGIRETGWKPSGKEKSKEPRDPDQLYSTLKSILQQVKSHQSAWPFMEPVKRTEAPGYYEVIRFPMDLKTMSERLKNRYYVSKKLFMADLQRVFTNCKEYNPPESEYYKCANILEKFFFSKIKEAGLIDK
UniProt P08047: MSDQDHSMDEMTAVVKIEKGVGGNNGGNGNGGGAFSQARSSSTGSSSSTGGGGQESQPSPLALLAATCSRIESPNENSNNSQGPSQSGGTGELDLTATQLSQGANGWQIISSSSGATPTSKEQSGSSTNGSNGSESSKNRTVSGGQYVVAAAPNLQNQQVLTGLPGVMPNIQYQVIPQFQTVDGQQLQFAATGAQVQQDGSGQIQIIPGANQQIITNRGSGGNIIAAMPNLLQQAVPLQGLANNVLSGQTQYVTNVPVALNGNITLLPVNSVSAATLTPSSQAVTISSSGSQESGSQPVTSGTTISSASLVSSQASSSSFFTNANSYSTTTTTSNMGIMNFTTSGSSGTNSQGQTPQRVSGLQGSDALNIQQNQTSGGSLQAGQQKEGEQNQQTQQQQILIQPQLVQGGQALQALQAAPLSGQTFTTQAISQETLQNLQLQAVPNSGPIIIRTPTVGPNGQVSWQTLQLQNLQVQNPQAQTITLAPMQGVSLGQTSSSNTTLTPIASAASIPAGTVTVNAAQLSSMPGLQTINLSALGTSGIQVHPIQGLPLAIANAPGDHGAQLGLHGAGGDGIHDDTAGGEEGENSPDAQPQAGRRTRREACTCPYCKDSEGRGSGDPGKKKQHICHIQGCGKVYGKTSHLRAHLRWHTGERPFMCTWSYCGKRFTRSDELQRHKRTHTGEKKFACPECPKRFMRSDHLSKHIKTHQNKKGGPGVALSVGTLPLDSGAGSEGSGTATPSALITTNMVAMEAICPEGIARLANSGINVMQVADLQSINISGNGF
UniProt Q16594: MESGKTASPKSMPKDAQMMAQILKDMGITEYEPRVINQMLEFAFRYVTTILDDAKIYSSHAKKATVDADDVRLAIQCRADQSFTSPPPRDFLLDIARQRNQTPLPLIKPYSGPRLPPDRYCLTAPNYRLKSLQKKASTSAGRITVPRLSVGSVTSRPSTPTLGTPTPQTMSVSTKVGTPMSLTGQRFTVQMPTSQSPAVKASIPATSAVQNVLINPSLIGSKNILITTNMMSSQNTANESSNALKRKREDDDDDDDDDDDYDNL
UniProt O95602: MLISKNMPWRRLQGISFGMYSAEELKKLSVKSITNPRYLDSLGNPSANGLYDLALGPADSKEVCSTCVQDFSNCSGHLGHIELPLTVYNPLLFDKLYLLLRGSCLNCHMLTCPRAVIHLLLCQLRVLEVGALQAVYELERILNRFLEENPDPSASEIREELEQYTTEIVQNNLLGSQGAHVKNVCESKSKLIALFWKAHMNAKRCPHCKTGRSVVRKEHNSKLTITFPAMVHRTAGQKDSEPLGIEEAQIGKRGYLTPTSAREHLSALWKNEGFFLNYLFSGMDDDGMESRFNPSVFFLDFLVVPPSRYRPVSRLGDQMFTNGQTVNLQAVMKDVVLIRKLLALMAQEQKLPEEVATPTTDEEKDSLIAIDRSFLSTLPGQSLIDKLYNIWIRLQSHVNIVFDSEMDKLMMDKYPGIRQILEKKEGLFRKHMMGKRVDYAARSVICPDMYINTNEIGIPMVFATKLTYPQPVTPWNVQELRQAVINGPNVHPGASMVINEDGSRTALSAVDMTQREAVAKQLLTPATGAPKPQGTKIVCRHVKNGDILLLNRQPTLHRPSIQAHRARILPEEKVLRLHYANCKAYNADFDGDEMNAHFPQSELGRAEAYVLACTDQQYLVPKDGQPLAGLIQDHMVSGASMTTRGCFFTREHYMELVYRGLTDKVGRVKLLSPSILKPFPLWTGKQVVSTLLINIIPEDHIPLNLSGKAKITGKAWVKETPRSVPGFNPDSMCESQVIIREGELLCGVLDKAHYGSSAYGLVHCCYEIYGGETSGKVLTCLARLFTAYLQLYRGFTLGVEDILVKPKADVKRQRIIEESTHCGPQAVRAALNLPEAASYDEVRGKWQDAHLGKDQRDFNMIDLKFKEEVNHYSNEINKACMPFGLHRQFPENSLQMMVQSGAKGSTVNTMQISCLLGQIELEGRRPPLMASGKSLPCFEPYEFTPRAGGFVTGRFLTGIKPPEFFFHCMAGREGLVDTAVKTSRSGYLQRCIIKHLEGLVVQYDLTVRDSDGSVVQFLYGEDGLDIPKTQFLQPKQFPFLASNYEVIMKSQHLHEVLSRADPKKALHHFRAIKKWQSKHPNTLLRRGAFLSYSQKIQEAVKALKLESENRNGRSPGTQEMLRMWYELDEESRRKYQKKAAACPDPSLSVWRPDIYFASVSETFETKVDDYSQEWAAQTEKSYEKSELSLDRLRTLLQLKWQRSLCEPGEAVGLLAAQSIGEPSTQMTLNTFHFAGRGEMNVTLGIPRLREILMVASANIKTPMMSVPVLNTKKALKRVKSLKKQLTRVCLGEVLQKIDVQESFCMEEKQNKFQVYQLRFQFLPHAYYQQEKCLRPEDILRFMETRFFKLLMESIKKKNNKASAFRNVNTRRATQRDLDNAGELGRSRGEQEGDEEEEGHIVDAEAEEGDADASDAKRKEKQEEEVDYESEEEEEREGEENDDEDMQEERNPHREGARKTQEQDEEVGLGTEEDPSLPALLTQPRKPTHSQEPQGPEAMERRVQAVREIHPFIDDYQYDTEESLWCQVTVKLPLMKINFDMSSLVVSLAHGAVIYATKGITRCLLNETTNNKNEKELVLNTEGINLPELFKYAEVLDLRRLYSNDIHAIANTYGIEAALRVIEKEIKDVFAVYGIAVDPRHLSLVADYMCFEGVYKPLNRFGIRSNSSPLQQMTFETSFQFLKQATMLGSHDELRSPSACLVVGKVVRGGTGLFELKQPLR
UniProt O75486: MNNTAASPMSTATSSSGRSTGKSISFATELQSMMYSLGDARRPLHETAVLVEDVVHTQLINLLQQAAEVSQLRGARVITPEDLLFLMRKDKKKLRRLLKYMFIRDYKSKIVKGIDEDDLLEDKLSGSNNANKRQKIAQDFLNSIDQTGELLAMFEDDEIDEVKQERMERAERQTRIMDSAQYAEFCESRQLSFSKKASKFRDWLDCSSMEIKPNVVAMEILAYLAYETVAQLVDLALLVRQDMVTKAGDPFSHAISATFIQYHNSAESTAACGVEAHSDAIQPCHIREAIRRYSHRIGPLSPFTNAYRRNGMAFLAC
UniProt Q92830: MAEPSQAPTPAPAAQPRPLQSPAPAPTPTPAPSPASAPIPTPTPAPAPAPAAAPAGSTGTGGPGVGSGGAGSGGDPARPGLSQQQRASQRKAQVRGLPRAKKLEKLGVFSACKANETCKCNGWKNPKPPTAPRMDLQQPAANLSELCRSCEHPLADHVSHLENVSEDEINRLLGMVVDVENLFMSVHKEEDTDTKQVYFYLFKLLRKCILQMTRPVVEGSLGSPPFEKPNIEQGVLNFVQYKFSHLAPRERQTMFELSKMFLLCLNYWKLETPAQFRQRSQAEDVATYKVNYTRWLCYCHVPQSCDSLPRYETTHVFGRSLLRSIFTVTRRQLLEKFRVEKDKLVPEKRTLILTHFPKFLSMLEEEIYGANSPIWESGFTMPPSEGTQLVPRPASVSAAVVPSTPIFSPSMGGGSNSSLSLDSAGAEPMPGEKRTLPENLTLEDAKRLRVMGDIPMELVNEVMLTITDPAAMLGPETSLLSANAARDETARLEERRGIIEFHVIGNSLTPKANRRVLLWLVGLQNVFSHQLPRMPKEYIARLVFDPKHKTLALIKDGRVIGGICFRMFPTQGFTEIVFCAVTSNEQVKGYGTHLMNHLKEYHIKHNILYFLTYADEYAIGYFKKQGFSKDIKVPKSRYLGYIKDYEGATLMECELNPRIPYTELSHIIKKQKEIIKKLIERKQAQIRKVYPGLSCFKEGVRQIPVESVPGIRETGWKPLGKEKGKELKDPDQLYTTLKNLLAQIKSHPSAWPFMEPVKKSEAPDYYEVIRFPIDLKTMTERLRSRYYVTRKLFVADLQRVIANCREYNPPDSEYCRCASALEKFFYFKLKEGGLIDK

Tests used:
Experiment in all cases: affinity purification with mass spectrometry; co-IP/MS in HEK293T cells expressing SGF29-WT or SGF29-R207P with flag and EGFP dual tags; Flag-EGFP as control
[1] = molecular target: Flag-EGFP-SGF29-R207P (human) (UniProt Q96ES7)
[2] = molecular target: Flag-EGFP-SGF29-WT (human) (UniProt Q96ES7)
[3] = molecular target: Flag-EGFP-SGF29-R207P (human) (UniProt Q96ES7); remark: listed apart in the source
[4] = molecular target: Flag-EGFP-SGF29-WT (human) (UniProt Q96ES7); remark: listed apart in the source

Molecule	binding [1]	binding [2]	binding [3]	binding [4]
ADA3 (from UniProt O75528 1-432)	binds	binds		
KAT2B (from UniProt Q92831 1-832)	binds	binds		
Transcription factor SP1 (from UniProt P08047 1-785)	no binding	binds		
mediator of RNA polymerase II transcription subunit 4 (MED4) (protein, UniProt Q9NPJ6 1-270) MAASSSGEKEKERLGGGLGVAGGNSTRERLLSALEDLEVLSRELIEMLAISRNQKLLQAGEENQVLELLIHRDGEFQELMKLALNQGKIHHEMQVLEKEVEKRDSDIQQLQKQLKEAEQILATAVYQAKEKLKSIEKARKGAISSEEIIKYAHRISASNAVCAPLTWVPGDPRRPYPTDLEMRSGLLGQMNNPSTNGVNGHLPGDALAAGRLPDVLAPQYPWQSNDMSMNMLPPNHSSDFLLEPPGHNKENEDDVEIMSTDSSSSSSESD			no binding	binds
TCOF1, also known as treacle (protein, UniProt Q13428 1-1488) MAEARKRRELLPLIYHHLLRAGYVRAAREVKEQSGQKCFLAQPVTLLDIYTHWQQTSELGRKRKAEEDAALQAKKTRVSDPISTSESSEEEEEAEAETAKATPRLASTNSSVLGADLPSSMKEKAKAETEKAGKTGNSMPHPATGKTVANLLSGKSPRKSAEPSANTTLVSETEEEGSVPAFGAAAKPGMVSAGQADSSSEDTSSSSDETDVEGKPSVKPAQVKASSVSTKESPARKAAPAPGKVGDVTPQVKGGALPPAKRAKKPEEESESSEEGSESEEEAPAGTRSQVKASEKILQVRAASAPAKGTPGKGATPAPPGKAGAVASQTKAGKPEEDSESSSEESSDSEEETPAAKALLQAKASGKTSQVGAASAPAKESPRKGAAPAPPGKTGPAVAKAQAGKREEDSQSSSEESDSEEEAPAQAKPSGKAPQVRAASAPAKESPRKGAAPAPPRKTGPAAAQVQVGKQEEDSRSSSEESDSDREALAAMNAAQVKPLGKSPQVKPASTMGMGPLGKGAGPVPPGKVGPATPSAQVGKWEEDSESSSEESSDSSDGEVPTAVAPAQEKSLGNILQAKPTSSPAKGPPQKAGPVAVQVKAEKPMDNSESSEESSDSADSEEAPAAMTAAQAKPALKIPQTKACPKKTNTTASAKVAPVRVGTQAPRKAGTATSPAGSSPAVAGGTQRPAEDSSSSEESDSEEEKTGLAVTVGQAKSVGKGLQVKAASVPVKGSLGQGTAPVLPGKTGPTVTQVKAEKQEDSESSEEESDSEEAAASPAQVKTSVKKTQAKANPAAARAPSAKGTISAPGKVVTAAAQAKQRSPSKVKPPVRNPQNSTVLARGPASVPSVGKAVATAAQAQTGPEEDSGSSEEESDSEEEAETLAQVKPSGKTHQIRAALAPAKESPRKGAAPTPPGKTGPSAAQAGKQDDSGSSSEESDSDGEAPAAVTSAQVIKPPLIFVDPNRSPAGPAATPAQAQAASTPRKARASESTARSSSSESEDEDVIPATQCLTPGIRTNVVTMPTAHPRIAPKASMAGASSSKESSRISDGKKQEGPATQVSKKNPASLPLTQAALKVLAQKASEAQPPVARTQPSSGVDSAVGTLPATSPQSTSVQAKGTNKLRKPKLPEVQQATKAPESSDDSEDSSDSSSGSEEDGEGPQGAKSAHTLGPTPSRTETLVEETAAESSEDDVVAPSQSLLSGYMTPGLTPANSQASKATPKLDSSPSVSSTLAAKDDPDGKQEAKPQQAAGMLSPKTGGKEAASGTTPQKSRKPKKGAGNPQASTLALQSNITQCLLGQPWPLNEAQVQASVVKVLTELLEQERKKVVDTTKESSRKGWESRKRKLSGDQPAARTPRSKKKKKLGAGEGGEASVSPEKTSTTSKGKAKRDKASGDVKEKKGKGSLGSQGAKDEPEEELQKGMGTVEGGDQSNPKSKKEKKKSDKRKKDKEKKEKKKKAKKASTKDSESPSQKKKKKKKKTAEQTV				binds
ADA2A (protein, UniProt O75478 1-443) MDRLGPFSNDPSDKPPCRGCSSYLMEPYIKCAECGPPPFFLCLQCFTRGFEYKKHQSDHTYEIMTSDFPVLDPSWTAQEEMALLEAVMDCGFGNWQDVANQMCTKTKEECEKHYMKHFINNPLFASTLLNLKQAEEAKTADTAIPFHSTDDPPRPTFDSLLSRDMAGYMPARADFIEEFDNYAEWDLRDIDFVEDDSDILHALKMAVVDIYHSRLKERQRRKKIIRDHGLINLRKFQLMERRYPKEVQDLYETMRRFARIVGPVEHDKFIESHALEFELRREIKRLQEYRTAGITNFCSARTYDHLKKTREEERLKRTMLSEVLQYIQDSSACQQWLRRQADIDSGLSPSIPMASNSGRRSAPPLNLTGLPGTEKLNEKEKELCQMVRLVPGAYLEYKSALLNECNKQGGLRLAQARALIKIDVNKTRKIYDFLIREGYITKG			binds	binds

More lines, now with the values ahead:

binding [1]	binding [2]	binding [3]	binding [4]	Molecule
no binding	binds			TAF9 (from UniProt Q16594 1-264)
	binds			POLR1A, a subunit of RNA polymerase I (from UniProt O95602 1-1720)
no binding	binds			SUPT3H (from UniProt O75486 1-317)
binds	binds			KAT2A (GCN5) (from UniProt Q92830 1-837)
		no binding	binds	GTF2H4 (protein, UniProt Q92759 1-462) MESTPSRGLNRVHLQCRNLQEFLGGLSPGVLDRLYGHPATCLAVFRELPSLAKNWVMRMLFLEQPLPQAAVALWVKKEFSKAQEESTGLLSGLRIWHTQLLPGGLQGLILNPIFRQNLRIALLGGGKAWSDDTSQLGPDKHARDVPSLDKYAEERWEVVLHFMVGSPSAAVSQDLAQLLSQAGLMKSTEPGEPPCITSAGFQFLLLDTPAQLWYFMLQYLQTAQSRGMDLVEILSFLFQLSFSTLGKDYSVEGMSDSLLNFLQHLREFGLVFQRKRKSRRYYPTRLAINLSSGVSGAGGTVHQPGFIVVETNYRLYAYTESELQIALIALFSEMLYRFPNMVVAQVTRESVQQAIASGITAQQIIHFLRTRAHPVMLKQTPVLPPTITDQIRLWELERDRLRFTEGVLYNQFLSQVDFELLLAHARELGVLVFENSAKRLMVVTPAGHSDVKRFWKRQKHSS
		no binding	binds	GTF2H2 (protein, UniProt Q13888 1-395) MDEEPERTKRWEGGYERTWEILKEDESGSLKATIEDILFKAKRKRVFEHHGQVRLGMMRHLYVVVDGSRTMEDQDLKPNRLTCTLKLLEYFVEEYFDQNPISQIGIIVTKSKRAEKLTELSGNPRKHITSLKKAVDMTCHGEPSLYNSLSIAMQTLKHMPGHTSREVLIIFSSLTTCDPSNIYDLIKTLKAAKIRVSVIGLSAEVRVCTVLARETGGTYHVILDESHYKELLTHHVSPPPASSSSECSLIRMGFPQHTIASLSDQDAKPSFSMAHLDGNTEPGLTLGGYFCPQCRAKYCELPVECKICGLTLVSAPHLARSYHHLFPLDAFQEIPLEEYNGERFCYGCQGELKDQHVYVCAVCQNVFCVDCDVFVHDSLHCCPGCIHKIPAPSGV
		no binding	binds	GTF2H3 (protein, UniProt Q13889 1-308) MVSDEDELNLLVIVVDANPIWWGKQALKESQFTLSKCIDAVMVLGNSHLFMNRSNKLAVIASHIQESRFLYPGKNGRLGDFFGDPGNPPEFNPSGSKDGKYELLTSANEVIVEEIKDLMTKSDIKGQHTETLLAGSLAKALCYIHRMNKEVKDNQEMKSRILVIKAAEDSALQYMNFMNVIFAAQKQNILIDACVLDSDSGLLQQACDITGGLYLKVPQMPSLLQYLLWVFLPDQDQRSQLILPPPVHVDYRAACFCHRNLIEIGYVCSVCLSIFCNFSPICTTCETAFKISLPPVLKAKKKKLKVSA
